## Primary screen of a compound library

The chains behind the UniProt entries cited, without tags or fusion partners. Residues count along the entry.
UniProt Q8IDJ8, 1-583: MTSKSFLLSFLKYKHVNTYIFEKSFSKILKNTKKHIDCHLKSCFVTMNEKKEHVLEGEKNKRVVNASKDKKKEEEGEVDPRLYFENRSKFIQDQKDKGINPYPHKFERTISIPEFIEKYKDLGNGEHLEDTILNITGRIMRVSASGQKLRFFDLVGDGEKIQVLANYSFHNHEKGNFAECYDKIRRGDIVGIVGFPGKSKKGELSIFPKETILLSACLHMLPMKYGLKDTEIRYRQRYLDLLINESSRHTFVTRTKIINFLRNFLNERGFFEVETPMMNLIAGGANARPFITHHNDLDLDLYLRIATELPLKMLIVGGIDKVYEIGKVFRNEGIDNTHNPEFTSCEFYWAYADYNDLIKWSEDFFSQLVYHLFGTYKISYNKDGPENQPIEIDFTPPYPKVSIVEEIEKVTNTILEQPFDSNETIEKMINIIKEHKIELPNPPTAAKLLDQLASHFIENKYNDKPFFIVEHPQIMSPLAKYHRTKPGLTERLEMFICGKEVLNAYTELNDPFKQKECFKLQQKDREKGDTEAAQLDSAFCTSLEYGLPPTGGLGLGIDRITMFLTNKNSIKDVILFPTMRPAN
UniProt P9WFT3, whole entry: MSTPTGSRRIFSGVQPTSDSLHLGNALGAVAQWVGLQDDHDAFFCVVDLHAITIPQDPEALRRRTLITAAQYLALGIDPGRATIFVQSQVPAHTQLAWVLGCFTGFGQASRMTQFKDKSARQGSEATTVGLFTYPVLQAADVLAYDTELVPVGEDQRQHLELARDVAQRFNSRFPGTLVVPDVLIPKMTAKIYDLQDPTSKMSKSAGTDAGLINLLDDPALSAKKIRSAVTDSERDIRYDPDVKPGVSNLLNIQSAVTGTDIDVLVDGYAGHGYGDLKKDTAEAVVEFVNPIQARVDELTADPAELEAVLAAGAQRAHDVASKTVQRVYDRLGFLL

PfKRS1: 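Enzyme assay of the cytosolic lysyl-tRNA synthetase in 384-well plates, read by luminescence. Target: Lysine-tRNA ligase, Plasmodium falciparum 3D7 (UniProt Q8IDJ8). Tested at 30 µM. Direction is inferred from only a few compounds that gave an IC50; most scored high, so higher reads as stronger inhibition. Size under these conditions: about 69,000 compounds, about 49 of them at 50% or above in at least one test.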
MtTrpRS: 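Enzyme assay of tryptophanyl-tRNA synthetase; the read-out is not stated. Target: Tryptophan-tRNA ligase, Mycobacterium tuberculosis (UniProt P9WFT3). Compounds at 10 µM. Direction is not recorded; retested compounds ran higher, which suggests that high means inhibition. Of about 65,000 compounds tested this way, about 64 (0.098%) reached 50% or more in at least one test.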
Leishmania in macrophages: 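Cell assay of Leishmania donovani living inside macrophages; the read-out is not stated. Tested at 30 µM. The record gives no direction; compounds that gave an IC50 in retests scored well above the rest, so higher reads as stronger inhibition. About 69,000 compounds were tested under these conditions; 1.5% (about 1,000) showed 50% or more at least once.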

Results are given as percent effect. How 0% and 100% were set is not recorded. Most values in the screen are low, and negative values occur. The compounds are a random part of those screened. Two or more numbers in one place are separate tests of the same structure; such repeats can differ widely. A dash means the value is not listed here; it may have been measured.

structure,PfKRS1,MtTrpRS,Leishmania in macrophages
Cc1c(C(C)NCc2cnn(C)c2)cnn1-c1ccccc1 (stereo unspecified),8.21,0.4341,9.681
Cc1nc(CN2C[C@@H]3CN(C(=O)c4ccco4)C[C@@H]3C2=O)cs1,3.622,-5.514,-
Cc1nc(NC(=O)CCOCC(F)(F)F)ccc1Br,2.592,-1.242,-44.94
Cc1cc(N(C)C)cc(C2CCN(S(=O)(=O)c3cccs3)C2)n1 (stereo unspecified),-1.281,17.58,-13.36
O=C(O)C(F)(F)F.[H][C@@]12CN(C(=O)Cc3ccccn3)C[C@]1([H])[C@@H]2CC(=O)NC(C)C,-,-,25.21
O=C1CC(c2ccc(C(=O)O)cc2)c2cnn(Cc3ccco3)c2N1 (stereo unspecified),3.808,5.112,-1.237 and 3.654
CCc1nc(CN2CCCN(C(=O)C(C)n3cncn3)CC2)cs1 (stereo unspecified),0.8463,0.5596,-19.94
O=C(NC1CCN(C2CC2)CC1)NC1CCOc2ccc(Br)cc21 (stereo unspecified),-3.055,3.549,-9.779
Cc1nn(C)c(N(C)C)c1CNCc1ccnc(N2CCOCC2)c1,0.5987,-3.834,33.49
CCN1CC(C(=O)NCCn2cccc2)CCC1=O (stereo unspecified),2.963,-4.805,45.51
c1csc(CN2CC[C@H]3O[C@@H](COCC4CC4)CC[C@H]32)c1,-1.678,8.112,-
[H][C@@]12CCN(S(=O)(=O)CCC)[C@]1([H])CC[C@@H](c1nnc(C)o1)O2,-,-,-7.047
COc1cc(OC)cc(C(=O)NCc2nn(C)c3c2COCC3)c1,4.891,-3.053,-15.01
OCC1(O)CCN(c2ccnc3c(C(F)(F)F)cccc23)CC1,0.6426,4.157,5.043
CNc1cc2c(nn1)CCN(C(=O)c1ccc3c(c1)CCC3)C2,-0.04064,0.1254,-11.84
COCCn1ccnc1-c1cc(CN2CCCCC2)cs1,6.452,2.222,-22.79
Cc1noc([C@H]2C[C@H]3OCC[C@H]3N(Cc3scnc3C)C2)n1,2.067,-2.881,-
Cc1noc(C)c1C1CCCN1C(=O)CN1C(=O)OC(C)(C)C1=O (stereo unspecified),-3.89,3.671,-15.99
Cc1cc(N2CCC3(CCC(=O)N(CC4CC4)C3)CC2)nc(N)n1,5.68,-2.179,27.68
CN(C)c1nc(NCCc2cnccn2)ncc1F,8.798,0.2441,39.42
COCC1CN(Cc2ccc(C)o2)Cc2cnn(CC3CCOCC3)c21 (stereo unspecified),3.595,12.45,-
CS(=O)(=O)N[C@H]1CCO[C@]2(CCN(CC3CCOCC3)C2)C1.O=C(O)C(F)(F)F,-,-,29.11
COC(=O)c1sc2nc3c(c(C(F)(F)F)c2c1N)CN(C(C)=O)CC3,4.305,0.07886,3.771
CN1CCCC(CCCc2cccnc2)(C(N)=O)C1 (stereo unspecified),1.503,-,20.23 and 19.51
O=C(C1CCOCC1)N1CCc2ncnc(-c3ccc(F)cc3)c2CC1,-4.77,1.364,6.542
CC(=O)N1CCO[C@@H]2CN(S(=O)(=O)c3cccs3)CC[C@@H]2C1,2.332,-,-
CN1CCC/C1=N\S(=O)(=O)c1ccc(NC(=O)CCc2cccs2)cc1,3.266,-3.742,18.66
Cc1cc(N(C)C)nc(C2CCCNC2)n1.Cl (stereo unspecified),-,-,26.4
CC(C)COCC1CN(Cc2ccco2)Cc2ncn(C)c21 (stereo unspecified),5.779,4.411,-3.108
COc1ccc(NC(C)=O)c(N2CCN(C(C)=O)CC2)n1,6.876,2.064,14.33
CN(C)C1CCN(C(=O)c2cccc(S(=O)(=O)NCC3(C)COC3)c2)C1 (stereo unspecified),5.35,1.817,28.53
c1cc(CN2CCOC3(CCCC3)C2)no1,0.2803,-1.718,5.336
CC(Sc1nncn1C)C(=O)NCCCOc1ccc(F)cc1 (stereo unspecified),-1.189,0.4472,5.911
O=C(O)C(F)(F)F.[H][C@]12CCN(C(=O)c3occc3C)C[C@@]1([H])OCCN(C1CCOCC1)C2,-,-,7.637
CC(=O)Nc1ccc(C(=O)N(C)C(C)Cc2cc(C)ccn2)cn1 (stereo unspecified),-1.479,0.3458,-29.15
Cn1cc(CN2CCC(F)(F)C3(CCN(c4cccnc4)C3)C2)cn1 (stereo unspecified),1.413,1.527,-
CCN(CC)C(=O)c1nnc2ccc(N3CCOCC3)cc2n1,-1.644,21.31,9.834
CN1Cc2c(C(=O)NCC3CCCO3)ncn2-c2ccccc2S1(=O)=O (stereo unspecified),-3.109,4.888,-4.802
Cc1ccc(-c2n[nH]cc2CNCC2CCS(=O)(=O)C2)o1 (stereo unspecified),-1.616,16.68,-1.874
C[C@@H]1C(=O)NC[C@H]2CN(Cc3ccsc3)C[C@H]21,1.824,-0.687,-

Once more, the final 4:

structure,PfKRS1,MtTrpRS,Leishmania in macrophages
CCN(CC)C(=O)c1nnc2ccc(N3CCOCC3)cc2n1,-1.644,21.31,9.834
CN1Cc2c(C(=O)NCC3CCCO3)ncn2-c2ccccc2S1(=O)=O (stereo unspecified),-3.109,4.888,-4.802
Cc1ccc(-c2n[nH]cc2CNCC2CCS(=O)(=O)C2)o1 (stereo unspecified),-1.616,16.68,-1.874
C[C@@H]1C(=O)NC[C@H]2CN(Cc3ccsc3)C[C@H]21,1.824,-0.687,-

From ChEMBL document CHEMBL3988442, “University of Dundee, Small-Polar-MMV Screening Library” (2021).